For 69 compounds, Ingredient intensity results are on record in patent US20260272797A1, “FRAGRANCE COMPOSITION” (GIVAUDAN SA, priority 2023, published 2026).

A short description of this series: Odour intensity of fragrance ingredient (olfactometry / typical dosage) used for grouping. The settings on record: Table 3; odour intensity of ingredient (Low/Medium/High).
Regarding `CC(=O)C1(C)CC2=C(CCCC2(C)C)CC1C` (stereo not drawn) [1-(2,3,8,8-tetramethyl-1,2,3,4,5,6,7,8-octahydronaphthalen-2-yl)ethanone], the Ingredient intensity entry is listed as “Low”. The result for `CCCCCC1(C)CCC(C)(C)C1=O` (stereo not drawn) [2,2,5-trimethyl-5-pentylcyclopentanone] reads “High”; that for `C=CCc1ccc(O)c(OC)c1` [4-allyl-2-methoxyphenol], “High”.

`Cc1ccc2c(c1)OCC(=O)CO2` [8-methyl-1,5-benzodioxepin-3-one]: the Ingredient intensity result is “Medium”. As for `CCCCCCCC(=O)OCC` [ethyl octanoate], the Ingredient intensity result is “High”. The same measure for `CC(C)CCCC(C)CCO` (stereo not drawn) [3,7-dimethyloctan-1-ol]: “High”. The same measure for `CCCC1(C(C)(C)C)C=CC(C)O1` (stereo not drawn) [5-tert-butyl-2-methyl-5-propyl-2H-furan]: “High”; for `CCCCCCCCCC(C)C=O` (stereo not drawn) [2-methylundecanal]: “Medium”; for `CCCCCCC1CCC(=O)O1` (stereo not drawn) [5-hexyloxolan-2-one]: “Low”.

On to `CC1(C)CCC[C@]2(C)[C@H]3CCO[C@]3(C)CC[C@@H]12` [(3aR,5aS,9aS,9bR)-3a,6,6,9a-tetramethyl-2,4,5,5a,7,8,9,9b-octahydro-1H-benzo[e][1]benzofuran], for which the Ingredient intensity entry is reported as “Medium”. With `C[C@@H]1CC[C@H]2C(C)(C)[C@H]3C[C@@]12CC1OC(C)(C)OC13C` (stereo partly drawn) [(4aR,5R,7aS,9R)-Octahydro-2,2,5,8,8,9a-hexamethyl-4H-4a,9-methanoazuleno[5,6-d]-1,3-dioxole], the Ingredient intensity result is “High”. The same measure for `CC1=CCC(/C=C/C(C)C(C)O)C1(C)C` (stereo not drawn) [(E)-3-methyl-5-(2,2,3-trimethylcyclopent-3-en-1-yl)pent-4-en-2-ol]: “Medium”; for `COc1ccc(C=O)cc1` [4-methoxybenzaldehyde]: “Low”. The same measure for `CC(=O)/C(C)=C/C1=C(C)CCCC1(C)C` [(E)-3-methyl-4-(2,6,6-trimethylcyclohex-1-en-1-yl)but-3-en-2-one]: “Medium”. The result for `CCCCCCCC1CCCC(=O)O1` (stereo not drawn) [6-heptyltetrahydro-2H-pyran-2-one] reads “Low”; that for `CC(C)c1ccc(CO)cc1` [(4-isopropylphenyl)methanol], “High”; that for mercapto-para-menthan-3-one, “High”. As for `COC(=O)c1ccccc1N` [methyl 2-aminobenzoate], the Ingredient intensity result was “Medium”. The result for `C=CC(C)(O)CC/C=C(\C)CCC=C(C)C` (stereo not drawn) [(E)-3,7,11-trimethyldodeca-1,6,10-trien-3-ol] reads “High”; that for `CC(CCO)CCc1ccccc1` (stereo not drawn) [3-methyl-5-phenylpentan-1-ol], “Medium”. The result for `CCCCCC/C=C/C(=O)OC` [(E)-methyl non-2-enoate] reads “High”; that for `CCCCCCC(=O)OCC` [ethyl heptanoate], “High”.

Turning to `CCOc1cc(C)ccc1O` [2-ethoxy-4-methylphenol], the Ingredient intensity result was “High”. The same measure for `CC1CCC(C(C)C)C(O)C1` (stereo not drawn) [2-isopropyl-5-methylcyclohexanol]: “Medium”; for `C/C=C/C(=O)C1=C(C)C=CCC1(C)C` [(E)-1-(2,6,6-trimethylcyclohexa-1,3-dien-1-yl)but-2-en-1-one]: “High”.

For the compound `CCC(C)(CCCC(C)C=O)OC` (stereo not drawn) [6-methoxy-2,6-dimethyloctanal], the Ingredient intensity entry was “High”. The result for `C/C=C/C(=O)/C(C)=C(\C)C(C)C` [(2E,5E)-5,6,7-trimethylocta-2,5-dien-4-one] reads “High”; that for `COc1ccc(CC(C)C=O)cc1` (stereo not drawn) [3-(4-methoxyphenyl)-2-methylpropanal], “Medium”. The same measure for `COc1cc(C=O)ccc1OC(=O)C(C)C` [4-formyl-2-methoxyphenyl 2-methylpropanoate]: “High”; for `Cc1cc(CC(C)C)ccc1CCC=O` [3-(4-(2-methylpropyl)-2-methylphenyl)propanal]: “Low”; for `CC1(C)[C@H]2CC[C@]1(C)C(=O)C2` [(1S,4S)-1,7,7-trimethylbicyclo[2.2.1]heptan-2-one]: “High”.

For the compound `CC(C)=CCCC(C)CCO` (stereo not drawn) [3,7-dimethyloct-6-en-1-ol], the Ingredient intensity entry is listed as “Low”. The result for `CC1COCc2cc3c(cc21)C(C)(C)C(C)C3(C)C` (stereo not drawn) [4,6,6,7,8,8-hexamethyl-1,3,4,6,7,8-hexahydrocyclopenta[g]isochromene] reads “Medium”; that for `CC(C=O)Cc1ccc(C(C)(C)C)cc1` (stereo not drawn) [3-(4-(tert-butyl)phenyl)-2-methylpropanal], “Low”. The same measure for `CCC(=O)/C=C/C1C(C)=CCCC1(C)C` (stereo not drawn) [(E)-1-(2,6,6-trimethylcyclohex-2-en-1-yl)pent-1-en-3-one]: “Low”; for `O=Cc1ccc2c(c1)OCO2` [benzo[d][1,3]dioxole-5-carbaldehyde]: “Low”.

On to `C/C=C(\CC)CCC(C)CCO` (stereo not drawn) [(E)-6-ethyl-3-methyloct-6-en-1-ol], for which the Ingredient intensity result is recorded as “High”.

As for `CC(=O)O[C@]1(C)CC[C@]23CC1C(C)(C)C2CC[C@@H]3C` (stereo partly drawn) [(1S,6R,8aR)-1,4,4,6-tetramethyloctahydro-1H-5,8a-methanoazulen-6-yl acetate], the Ingredient intensity result is listed as “Low”. The result for `CCCCCCC#CC(=O)OC` [methyl non-2-ynoate] reads “High”. The same measure for `CC(=O)c1ccccc1` [1-phenylethanone]: “High”; for `CC1C/C=C\CCCCCCCCCC(=O)C1` (stereo not drawn) [(Z)-3-methylcyclopentadec-5-enone]: “Medium”. The result for `C/C=C/C(=O)C1=C(C)CCCC1(C)C` [(E)-1-(2,6,6-trimethyl-1-cyclohexenyl)but-2-en-1-one] reads “High”; that for `CC(C)=CCCC(C)CC=O` (stereo not drawn) [3,7-dimethyloct-6-enal], “High”; that for `CC(CCO)CCCC(C)(C)O` (stereo not drawn) [3,7-dimethyloctane-1,7-diol], “Medium”.

As for `CCC(O)COC1CCCCC1C(C)(C)C` (stereo not drawn) [1-((2-(tert-butyl)cyclohexyl)oxy)butan-2-ol], the Ingredient intensity result is given as “Medium”. Take `O=C(OC1CCCCC1)c1ccccc1O` [cyclohexyl 2-hydroxybenzoate]: the Ingredient intensity result is reported as “Low”.

Turning to `CC(C)CCc1ccc2c(c1)OCC(=O)CO2` [7-isopentyl-2H-benzo[b][1,4]dioxepin-3(4H)-one], the Ingredient intensity result is on record as “High”. The result for `CC(C)C1CCC(CO)CC1` (stereo not drawn) [(4-isopropylcyclohexyl)methanol] reads “Medium”.

Regarding `CC(=O)C1CC/C=C\C(C)C(C)/C=C\C/C=C/1C` (stereo not drawn) [1-((2E,5Z,9Z)-2,7,8-trimethylcyclododeca-2,5,9-trien-1-yl)ethanone], the Ingredient intensity result is listed as “High”. The same measure for `c1ccc2[nH]ccc2c1` [1H-indole]: “High”; for `CC1=CC[C@H]2C(C1)C1CC2[C@@]2(C1)OC2C` (stereo partly drawn) [(2R,8aS)-3′,6-dimethyl-3,4,4a,5,8,8a-hexahydro-1H-spiro[1,4-methanonaphthalene-2,2′-oxirane]]: “Medium”. As for `C/C=C/C(=O)C1C(C)=CCCC1(C)C` (stereo not drawn) [(E)-1-(2,6,6-trimethylcyclohex-2-en-1-yl)but-2-en-1-one], the Ingredient intensity entry is recorded as “Medium”. The same measure for `C/C=C/c1ccc(OC)cc1` [(E)-1-methoxy-4-(prop-1-en-1-yl)benzene]: “Medium”; for `CCCCOC(=O)C(C)OC(=O)CCC` (stereo not drawn) [1-butoxy-1-oxopropan-2-yl butanoate]: “Medium”. For `Cc1ncsc1CCO` [2-(4-Methyl-1,3-thiazol-5-yl)ethanoL], the Ingredient intensity entry is listed as “High”.

Regarding `CC(=O)OC1CCCCC1C(C)(C)C` (stereo not drawn) [2-(tert-butyl)cyclohexyl acetate], the Ingredient intensity result was “Low”. As for `CC1C/C=C/CCCCCCCC(=O)OCC1` (stereo not drawn) [(E)-13-methyloxacyclopentadec-10-en-2-one], the Ingredient intensity entry is “Medium”. The result for `CC(CC=O)CCCC(C)(C)O` (stereo not drawn) [7-hydroxy-3,7-dimethyloctanal] reads “Medium”; that for `O=CCC/C=C1\CC2CC1[C@H]1CCC[C@@H]21` (stereo partly drawn) [(E)-4-((3aS,7aS)-hexahydro-1H-4,7-methanoinden-5(6H)-ylidene)butanal], “High”. The result for `CCOC(=O)CC1(C)OCCO1` [ethyl 2-(2-methyl-1,3-dioxolan-2-yl)acetate] reads “Low”; that for `CC(=O)c1cc2c(cc1C)C(C)(C)C(C)CC2(C)C` (stereo not drawn) [1-(3,5,5,6,8,8-hexamethyl-5,6,7,8-tetrahydronaphthalen-2-yl)ethanone], “Medium”; that for `CC1CCC2(CCC(=O)O2)CC1` (stereo not drawn) [8-methyl-1-oxaspiro[4.5]decan-2-one], “High”.

For `CC(=O)OCCC1=CCC2CC1C2(C)C` (stereo not drawn) [2-(6,6-dimethylbicyclo[3.1.1]hept-2-en-2-yl)ethyl acetate], the Ingredient intensity entry is on record as “Low”. `CCCc1ccc(O)c(OC)c1` [2-methoxy-4-propylphenol]: the Ingredient intensity entry is reported as “High”. The result for `CC(=O)/C(C)=C/C1C(C)=CCCC1(C)C` (stereo not drawn) [(E)-3-methyl-4-(2,6,6-trimethylcyclohex-2-en-1-yl)but-3-en-2-one] reads “Medium”; that for `C/C(=C\CCC=O)CCCC(C)(C)O` [(4E)-9-hydroxy-5,9-dimethyl-4-decenal], “Medium”.

In the case of `CCOC(=O)C(C)C` [ethyl 2-methylpropanoate], the Ingredient intensity entry was “Medium”.

`Cc1occc(=O)c1O` [3-hydroxy-2-methyl-4H-pyran-4-one]: the Ingredient intensity entry is on record as “Medium”. In the case of `C/C=C/c1ccc(O)c(OC)c1` [(E)-2-methoxy-4-(prop-1-en-1-yl)phenol], the Ingredient intensity result is recorded as “High”.
